# According to patent US9216955B2, “Polymorphic form of Fexofenadine hydrochloride, intermediates and process for its preparation” ([…] S.R.L., priority 2010, dated 2015):
structure (smiles),measurement,setting,value
"CC(C)(C(=O)O)c1ccc(C(O)CCCN2CCC(C(O)(c3ccccc3)c3ccccc3)CC2)cc1.Cl (centres unmarked) [polymorph φ, 2-[4-[1-hydroxy-4-[4-(hydroxydiphenylmethyl)-1-piperidyl]-butyl]phenyl]-2-methylpropanoic acid]",water absorption after extended exposure,at least for one year at room temperature with relative humidity of 60-70%,does not absorb water
same,stability of the solid form,can be stored for a long period of time under normal storage conditions,stable
